Consider three molecules from PMC13080232.

These are yes or no findings as the source states them, for the method shown. Binding seen in cells or lysates may run through a third protein. Here binding means that the protein was enriched with, or labelled near, the bait; the list need not be complete. For part of these data: Tags and fused reporters may be left off the sequences shown.

Assay [1] has as its target CD9:TurboID fusion protein (human) (UniProt P21926). Nature of the assay: proximity labelling; CD9:TurboID-V5 stably expressed in CD9-/- A549 cells; 50 μM biotin for 30, 60 or 240 min; cells uninfected or infected with N. meningitidis MC58 or S. aureus SH1000 (MOI = 50); RIPA lysis, streptavidin bead pull-down, on-bead digestion, LC-MS/MS with LFQ; enrichment against cytosolic TurboID (FDR 0.01, s0 = 2), infected against uninfected (FDR 0.05, s0 = 0.1).

Assay [2] has as its target T1, CD9:TurboID fusion protein (human), P21926.
T1 chain: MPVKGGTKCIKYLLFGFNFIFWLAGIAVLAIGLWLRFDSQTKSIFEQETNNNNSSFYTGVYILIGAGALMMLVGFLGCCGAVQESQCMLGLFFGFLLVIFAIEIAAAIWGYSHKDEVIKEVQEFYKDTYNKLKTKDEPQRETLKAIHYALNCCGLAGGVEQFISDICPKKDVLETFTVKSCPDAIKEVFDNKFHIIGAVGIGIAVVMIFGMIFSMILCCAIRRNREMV
The assay is described as above. Conditions: remark: other sources report otherwise.

B1: immunoglobulin superfamily 3 (protein, UniProt O75054 20-1194)
chain: QRQVTVQEGPLYRTEGSHITIWCNVSGYQGPSEQNFQWSIYLPSSPEREVQIVSTMDSSFPYAIYTQRVRGGKIFIERVQGNSTLLHITDLQARDAGEYECHTPSTDKQYFGSYSAKMNLVVIPDSLQTTAMPQTLHRVEQDPLELTCEVASETIQHSHLSVAWLRQKVGEKPVEVISLSRDFMLHSSSEYAQRQSLGEVRLDKLGRTTFRLTIFHLQPSDQGEFYCEAAEWIQDPDGSWYAMTRKRSEGAVVNVQPTDKEFTVRLETEKRLHTVGEPVEFRCILEAQNVPDRYFAVSWAFNSSLIATMGPNAVPVLNSEFAHREARGQLKVAKESDSVFVLKIYHLRQEDSGKYNCRVTEREKTVTGEFIDKESKRPKNIPIIVLPLKSSISVEVASNASVILEGEDLRFSCSVRTAGRPQGRFSVIWQLVDRQNRRSNIMWLDRDGTVQPGSSYWERSSFGGVQMEQVQPNSFSLGIFNSRKEDEGQYECHVTEWVRAVDGEWQIVGERRASTPISITALEMGFAVTAISRTPGVTYSDSFDLQCIIKPHYPAWVPVSVTWRFQPVGTVEFHDLVTFTRDGGVQWGDRSSSFRTRTAIEKAESSNNVRLSISRASDTEAGKYQCVAELWRKNYNNTWTRLAERTSNLLEIRVLQPVTKLQVSKSKRTLTLVENKPIQLNCSVKSQTSQNSHFAVLWYVHKPSDADGKLILKTTHNSAFEYGTYAEEEGLRARLQFERHVSGGLFSLTVQRAEVSDSGSYYCHVEEWLLSPNYAWYKLAEEVSGRTEVTVKQPDSRLRLSQAQGNLSVLETRQVQLECVVLNRTSITSQLMVEWFVWKPNHPERETVARLSRDATFHYGEQAAKNNLKGRLHLESPSPGVYRLFIQNVAVQDSGTYSCHVEEWLPSPSGMWYKRAEDTAGQTALTVMRPDASLQVDTVVPNATVSEKAAFQLDCSIVSRSSQDSRFAVAWYSLRTKAGGKRSSPGLEEQEEEREEEEEEDDDDDDDPTERTALLSVGPDAVFGPEGSPWEGRLRFQRLSPVLYRLTVLQASPQDTGNYSCHVEEWLPSPQKEWYRLTEEESAPIGIRVLDTSPTLQSIICSNDALFYFVFFYPFPIFGILIITILLVRFKSRNSSKNSDGKNGVPLLWIKEPHLNYSPTCLEPPVLSIHPGAID
Regarding B1, in assay [1], the binding result is given as “binds”.

B2: CD151 (protein, UniProt P48509 1-253)
chain: MGEFNEKKTTCGTVCLKYLLFTYNCCFWLAGLAVMAVGIWTLALKSDYISLLASGTYLATAYILVVAGTVVMVTGVLGCCATFKERRNLLRLYFILLLIIFLLEIIAGILAYAYYQQLNTELKENLKDTMTKRYHQPGHEAVTSAVDQLQQEFHCCGSNNSQDWRDSEWIRSQEAGGRVVPDSCCKTVVALCGQRDHASNIYKVEGGCITKLETFIQEHLRVIGAVGIGIACVQVFGMIFTCCLYRSLKLEHY
In the case of B2, in assay [1], the binding result is “binds”.

B3: CD9:TurboID fusion protein, P21926 1-228 (protein)
chain: T1 chain
For B3, the binding entry in assay [2] was “binds”.
